Some entries share one result that the patent states for a list of compounds.
Biological target: T1, PRC2 (EZH2-Y641F) (Homo sapiens, UniProt Q15910, Y641F)
T1 construct: purchased Active motif
Experiment: In vitro methyltransferase assay
Type: biochemical
Procedure: Recombinant PRC2 (EZH2-Y641F) was purchased from Active motif, S-adenosyl-methionin chloride (SAM) and Poly-L-lysine (PLL) were purchased from Sigma-Aldrich, H3(1-50)K27me1 peptide was purchased from Cisbio. LANCEUltra (Perkinelmer) system was used for detection. For the enzyme activity test, tested compounds are 1:3 diluted for 8-points, and added into each well, then 100 ng enzyme is added. And then the buffer [20 mM Tris pH8.5, 2 mM MgCl2, 0.01% Tween-20, 1 mM TCEP] containing […]/250 nM H3 (1-50)K27me1 premixtures are added. After 3 hours enzyme reaction at RT, the premixed detection buffer (PLL, Europium antibody and Ulight) is added, and react for 1 h at RT, then read fluorescence on Tecan infinite pro. IC50s are counted by XLfit using a four-parameter model.

Chains of the proteins cited; added tags and fusions are not shown.
UniProt Q15910, whole entry Y641F: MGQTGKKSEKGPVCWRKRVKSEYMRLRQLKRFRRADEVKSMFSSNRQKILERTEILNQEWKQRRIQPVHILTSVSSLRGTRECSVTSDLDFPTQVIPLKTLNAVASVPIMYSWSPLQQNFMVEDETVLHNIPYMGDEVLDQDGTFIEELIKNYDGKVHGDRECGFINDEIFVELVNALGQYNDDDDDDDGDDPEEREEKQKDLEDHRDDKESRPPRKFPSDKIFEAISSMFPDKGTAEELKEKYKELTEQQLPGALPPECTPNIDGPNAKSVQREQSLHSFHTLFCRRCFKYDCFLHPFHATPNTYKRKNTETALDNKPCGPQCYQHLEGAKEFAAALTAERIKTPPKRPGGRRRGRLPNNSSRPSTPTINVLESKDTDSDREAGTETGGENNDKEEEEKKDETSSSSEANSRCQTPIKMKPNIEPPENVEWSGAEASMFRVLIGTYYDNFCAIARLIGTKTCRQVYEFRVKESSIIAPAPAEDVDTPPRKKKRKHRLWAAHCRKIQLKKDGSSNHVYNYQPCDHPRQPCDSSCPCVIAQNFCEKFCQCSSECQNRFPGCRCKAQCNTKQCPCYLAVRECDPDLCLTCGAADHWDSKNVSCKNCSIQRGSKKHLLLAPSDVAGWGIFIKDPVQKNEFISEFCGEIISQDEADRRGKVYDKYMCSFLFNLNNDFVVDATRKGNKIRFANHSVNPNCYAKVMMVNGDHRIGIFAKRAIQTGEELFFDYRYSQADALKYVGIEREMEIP

Structure (SMILES) | inhibitory activity against EZH2 Y641F enzyme
CCN(c1cc(C(=O)NCc2c(C)cc(C)[nH]c2=O)c(C)c2c1cnn2C)C1CCOCC1 [D1, N-((4,6-dimethyl-2-oxo-1,2-dihydropyridin-3-yl)methyl)-4-(ethyl (tetrahydro-2H-pyran-4-yl)amino)-1,7-dimethyl-1H-indazole-6-carboxamide] | greatly reduced
CCN(c1cc(C(=O)NCc2c(C)cc(C)[nH]c2=O)c(C)c2c1cnn2C)C1CCC(N(C)C)CC1 (stereo not shown) [D2] | greatly reduced
CCN(c1cc(C(=O)NCc2c(C)cc(C)[nH]c2=O)c(C)c2c1cnn2C)C1CCC(N2CC(OC)C2)CC1 (stereo not shown) [D3] | greatly reduced
CCN(c1cc(C(=O)NCc2c(C)cc(C)[nH]c2=O)c(C)c2c1cnn2C)C1CCN(CC(F)(F)F)CC1 [D4] | greatly reduced
